Data on one substance can be found in PMC11369092.

No constants are given. Whether binding was seen depends on the method and setting. In cells and extracts the contact can be indirect. Here binding means that the protein was enriched with, or labelled near, the bait; the list need not be complete. Sequences can lack the tags named with a protein.

The test addresses T1, Flag-SMYD5 (immunoprecipitated from cells) (UniProt Q6GMV2).
T1 sequence: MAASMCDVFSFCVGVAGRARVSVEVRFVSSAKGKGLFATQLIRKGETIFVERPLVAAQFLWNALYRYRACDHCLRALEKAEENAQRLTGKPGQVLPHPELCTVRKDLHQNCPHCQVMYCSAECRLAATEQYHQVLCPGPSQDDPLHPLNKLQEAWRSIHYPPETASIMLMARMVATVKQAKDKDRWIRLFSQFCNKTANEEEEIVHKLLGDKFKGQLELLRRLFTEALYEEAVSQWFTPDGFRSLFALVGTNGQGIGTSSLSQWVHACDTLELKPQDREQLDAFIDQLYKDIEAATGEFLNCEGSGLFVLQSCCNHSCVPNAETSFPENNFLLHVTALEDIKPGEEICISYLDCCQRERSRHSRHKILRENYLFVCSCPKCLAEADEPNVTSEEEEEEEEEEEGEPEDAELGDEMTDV
In words: affinity purification with mass spectrometry; Flag-SMYD5 immunoprecipitation from HeLa cytosol extracts, MS identification of interacting proteins.

With “RPL40 (endogenous) (human (endogenous in HeLa))”, the binding result is “binds”.
